Experimental data reported in US20020099177A1 (Human Genome Sciences, published 2002).
Results are given in words; binding and its absence hold for the method and conditions named. In cells and extracts the contact can be indirect. Sequences can lack the tags named with a protein.

Target: TRAF2 (Flag-TRAF2)
Assay: coimmunoprecipitation, coexpressed in 293T cells

B1: IRAK-2 (IRAK-2α; IRAK-2-MyC expression construct) (enzyme, not shown: small tags and cut ends)
chain: MACYIYQLPSWVLDDLCRNMDALSEWDWMEFASYVITDLTQLRKIKSMERVQGVSITRELLWWWGMRQATVQQLVDLLCRLELYRAAQIILNWKPAPEIRCPIPAFPDSVKPEKPLAASVRKAEDEQEEGQPVRMATFPGPGSSPARAHQPAFLQPPEEDAPHSLRSDLPTSSDSKDFSTSIPKQEKLLSLAGDSLFWSEADVVQATDDFNQNRKISQGTFADVYRGHRHGKPFVFKKLRETACSSPGSIERFFQAELQICLRCCHPNVLPVLGFCAARQFHSFIYPYMANGSLQDRLQGQGGSEPLPWPQRVSICSGLLCAVEYLHGLEIIHSNVKSSNVLLDQNLTPKLAHPMAHLCPVNKRSKYTMMKTHLLRTSAAYLPEDFIRVGQLTKRVDIFSCGIVLAEVLTGIPAMDNNRSPVYLKDLLLSEIPSSTASLCSRKTGVENVMAKEICQKYLEKGAGRLPEDCAEALATAACLCLRRRNTSLQEVCGSVAAVEERLRGRETLLPWSGLSEGTGSSSNTPEETDDVDNSSLDASSSMSVAPWAGAATPLLPTENGEGRLRVIVGREADSSSEACVGLEPPQDVT
Question: B1 was tested. Which binding did it give?
Answer: Its binding is “no binding”.
